Our source for the binding values is paper PMC6579516.

Protein sequences, listed by entry. Tags and fused reporters are not part of them.
UniProt P42945: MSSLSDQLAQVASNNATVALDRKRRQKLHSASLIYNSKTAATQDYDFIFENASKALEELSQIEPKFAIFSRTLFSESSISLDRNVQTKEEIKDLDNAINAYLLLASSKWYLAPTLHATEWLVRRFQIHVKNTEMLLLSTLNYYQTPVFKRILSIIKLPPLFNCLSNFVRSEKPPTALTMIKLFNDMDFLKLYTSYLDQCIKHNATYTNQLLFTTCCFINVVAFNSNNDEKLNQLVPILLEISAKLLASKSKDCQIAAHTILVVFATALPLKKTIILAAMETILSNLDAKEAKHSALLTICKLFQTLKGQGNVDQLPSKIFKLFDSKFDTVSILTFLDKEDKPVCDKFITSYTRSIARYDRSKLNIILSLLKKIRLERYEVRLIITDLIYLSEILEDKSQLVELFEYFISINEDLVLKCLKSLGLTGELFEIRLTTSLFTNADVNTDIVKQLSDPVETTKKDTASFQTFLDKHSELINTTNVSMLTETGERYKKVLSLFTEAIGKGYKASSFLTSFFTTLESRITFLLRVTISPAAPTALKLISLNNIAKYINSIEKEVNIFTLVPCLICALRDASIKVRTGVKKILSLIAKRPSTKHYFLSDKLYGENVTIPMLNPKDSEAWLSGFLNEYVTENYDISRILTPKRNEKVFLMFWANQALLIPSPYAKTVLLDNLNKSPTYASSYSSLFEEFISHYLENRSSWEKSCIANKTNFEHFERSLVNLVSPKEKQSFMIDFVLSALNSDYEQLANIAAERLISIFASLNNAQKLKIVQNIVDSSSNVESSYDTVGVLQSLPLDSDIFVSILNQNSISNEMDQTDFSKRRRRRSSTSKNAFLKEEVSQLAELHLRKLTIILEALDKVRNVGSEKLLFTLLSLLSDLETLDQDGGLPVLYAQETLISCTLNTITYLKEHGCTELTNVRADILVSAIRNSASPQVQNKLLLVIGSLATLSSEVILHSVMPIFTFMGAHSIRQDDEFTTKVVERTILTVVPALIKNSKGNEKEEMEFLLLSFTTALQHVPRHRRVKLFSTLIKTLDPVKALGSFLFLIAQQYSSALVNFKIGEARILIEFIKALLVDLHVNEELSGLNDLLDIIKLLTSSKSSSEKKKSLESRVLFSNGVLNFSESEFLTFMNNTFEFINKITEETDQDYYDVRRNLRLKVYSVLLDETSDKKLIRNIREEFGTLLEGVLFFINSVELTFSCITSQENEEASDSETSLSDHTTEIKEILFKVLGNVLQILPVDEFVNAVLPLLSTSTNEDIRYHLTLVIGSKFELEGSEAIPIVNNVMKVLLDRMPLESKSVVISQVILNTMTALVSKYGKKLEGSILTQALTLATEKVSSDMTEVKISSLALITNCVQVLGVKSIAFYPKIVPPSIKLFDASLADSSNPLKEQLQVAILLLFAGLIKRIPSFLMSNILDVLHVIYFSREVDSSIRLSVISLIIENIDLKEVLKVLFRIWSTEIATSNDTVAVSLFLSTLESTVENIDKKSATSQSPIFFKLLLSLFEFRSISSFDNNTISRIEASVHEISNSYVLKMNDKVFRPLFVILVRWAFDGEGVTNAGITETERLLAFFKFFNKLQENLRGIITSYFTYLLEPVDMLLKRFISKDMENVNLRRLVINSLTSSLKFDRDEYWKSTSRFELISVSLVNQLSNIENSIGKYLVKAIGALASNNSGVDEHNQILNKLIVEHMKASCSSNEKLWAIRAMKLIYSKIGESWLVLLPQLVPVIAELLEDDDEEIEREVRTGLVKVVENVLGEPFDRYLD
UniProt P20448: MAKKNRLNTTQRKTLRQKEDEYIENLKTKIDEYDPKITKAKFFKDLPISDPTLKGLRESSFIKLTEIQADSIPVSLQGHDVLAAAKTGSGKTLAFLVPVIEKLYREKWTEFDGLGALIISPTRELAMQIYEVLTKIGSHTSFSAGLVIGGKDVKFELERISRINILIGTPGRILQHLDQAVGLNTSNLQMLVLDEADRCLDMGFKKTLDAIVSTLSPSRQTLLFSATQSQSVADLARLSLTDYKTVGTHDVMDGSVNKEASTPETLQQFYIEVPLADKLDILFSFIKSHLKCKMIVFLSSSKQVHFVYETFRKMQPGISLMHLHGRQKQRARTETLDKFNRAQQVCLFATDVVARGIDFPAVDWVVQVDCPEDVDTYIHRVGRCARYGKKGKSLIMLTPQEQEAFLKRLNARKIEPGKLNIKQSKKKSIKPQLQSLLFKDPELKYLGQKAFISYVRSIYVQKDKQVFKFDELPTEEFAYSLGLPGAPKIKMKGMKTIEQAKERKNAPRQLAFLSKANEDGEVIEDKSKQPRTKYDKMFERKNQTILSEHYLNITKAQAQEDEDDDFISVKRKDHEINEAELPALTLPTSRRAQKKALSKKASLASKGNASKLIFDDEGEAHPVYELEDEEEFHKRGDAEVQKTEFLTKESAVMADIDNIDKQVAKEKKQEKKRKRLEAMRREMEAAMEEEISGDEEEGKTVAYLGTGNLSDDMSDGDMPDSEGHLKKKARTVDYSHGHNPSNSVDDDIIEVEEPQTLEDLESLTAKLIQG

B1: Bms1 (protein, UniProt Q08965 1-1183)
chain: MEQSNKQHRKAKEKNTAKKKLHTQGHNAKAFAVAAPGKMARTMQRSSDVNERKLHVPMVDRTPEDDPPPFIVAVVGPPGTGKTTLIRSLVRRMTKSTLNDIQGPITVVSGKHRRLTFLECPADDLNAMIDIAKIADLVLLLIDGNFGFEMETMEFLNIAQHHGMPRVLGVATHLDLFKSQSTLRASKKRLKHRFWTEVYQGAKLFYLSGVINGRYPDREILNLSRFISVMKFRPLKWRNEHPYMLADRFTDLTHPELIETQGLQIDRKVAIYGYLHGTPLPSAPGTRVHIAGVGDFSVAQIEKLPDPCPTPFYQQKLDDFEREKMKEEAKANGEITTASTTRRRKRLDDKDKLIYAPMSDVGGVLMDKDAVYIDIGKKNEEPSFVPGQERGEGEKLMTGLQSVEQSIAEKFDGVGLQLFSNGTELHEVADHEGMDVESGEESIEDDEGKSKGRTSLRKPRIYGKPVQEEDADIDNLPSDEEPYTNDDDVQDSEPRMVEIDFNNTGEQGAEKLALETDSEFEESEDEFSWERTAANKLKKTESKKRTWNIGKLIYMDNISPEECIRRWRGEDDDSKDESDIEEDVDDDFFRKKDGTVTKEGNKDHAVDLEKFVPYFDTFEKLAKKWKSVDAIKERFLGAGILGNDNKTKSDSNEGGEELYGDFEDLEDGNPSEQAEDNSDKESEDEDENEDTNGDDDNSFTNFDAEEKKDLTMEQEREMNAAKKEKLRAQFEIEEGENFKEDDENNEYDTWYELQKAKISKQLEINNIEYQEMTPEQRQRIEGFKAGSYVRIVFEKVPMEFVKNFNPKFPIVMGGLLPTEIKFGIVKARLRRHRWHKKILKTNDPLVLSLGWRRFQTLPIYTTTDSRTRTRMLKYTPEHTYCNAAFYGPLCSPNTPFCGVQIVANSDTGNGFRIAATGIVEEIDVNIEIVKKLKLVGFPYKIFKNTAFIKDMFSSAMEVARFEGAQIKTVSGIRGEIKRALSKPEGHYRAAFEDKILMSDIVILRSWYPVRVKKFYNPVTSLLLKEKTEWKGLRLTGQIRAAMNLETPSNPDSAYHKIERVERHFNGLKVPKAVQKELPFKSQIHQMKPQKKKTYMAKRAVVLGGDEKKARSFIQKVLTISKAKDSKRKEQKASQRKERLKKLAKMEEEKSQRDKEKKKEYFAQNGKRTTMGGDDESRPRKMRR
B2: Imp4 (protein, UniProt P53941 1-290)
chain: MLRRQARERREYLYRKAQELQDSQLQQKRQIIKQALAQGKPLPKELAEDESLQKDFRYDQSLKESEEADDLQVDDEYAATSGIMDPRIIVTTSRDPSTRLSQFAKEIKLLFPNAVRLNRGNYVMPNLVDACKKSGTTDLVVLHEHRGVPTSLTISHFPHGPTAQFSLHNVVMRHDIINAGNQSEVNPHLIFDNFTTALGKRVVCILKHLFNAGPKKDSERVITFANRGDFISVRQHVYVRTREGVEIAEVGPRFEMRLFELRLGTLENKDADVEWQLRRFIRTANKKDYL
B3: Bud21 (protein, UniProt Q08492 1-214)
chain: MSNGHVKFDADESQASASAVTDRQDDVLVISKKDKEVHSSSDEESDDDDAPQEEGLHSGKSEVESQITQREEAIRLEQSQLRSKRRKQNELYAKQKKSVNETEVTDEVIAELPEELLKNIDQKDEGSTQYSSSRHVTFDKLDESDENEEALAKAIKTKKRKTLKNLRKDSVKRGKFRVQLLSTTQDSKTLPPKKESSIIRSKDRWLNRKALNKG
B4: Mpp10 (protein, UniProt P47083 1-593)
chain: MSELFGVLKSNAGRIILKDPSATSKDVKAYIDSVINTCKNGSITKKAELDEITVDGLDANQVWWQVKLVLDSIDGDLIQGIQELKDVVTPSHNLSDGSTLNSSSGEESELEEAESVFKEKQMLSADVSEIEEQSNDSLSENDEEPSMDDEKTSAEAAREEFAEEKRISSGQDERHSSPDPYGINDKFFDLEKFNRDTLAAEDSNEASEGSEDEDIDYFQDMPSDDEEEEAIYYEDFFDKPTKEPVKKHSDVKDPKEDEELDEEEHDSAMDKVKLDLFADEEDEPNAEGVGEASDKNLSSFEKQQIEIRKQIEQLENEAVAEKKWSLKGEVKAKDRPEDALLTEELEFDRTAKPVPVITSEVTESLEDMIRRRIQDSNFDDLQRRTLLDITRKSQRPQFELSDVKSSKSLAEIYEDDYTRAEDESALSEELQKAHSEISELYANLVYKLDVLSSVHFVPKPASTSLEIRVETPTISMEDAQPLYMSNASSLAPQEIYNVGKAEKDGEIRLKNGVAMSKEELTREDKNRLRRALKRKRSKANLPNVNKRSKRNDVVDTLSKAKNITVINQKGEKKDVSGKTKKSRSGPDSTNIKL
B5: Esf1 (protein, UniProt Q06344 1-628)
chain: MAGENPKKEGVDARFAGIYSDPKFKNTKTKDHKIKLDSRFSKKDLEVQHKSKVDKYGRKIKNAQNNRELEDFDKYFEKEAENDEDSEVNAKTVVDRARGEVPDDYVSSSDEFTSSDSESSGESEVESEEENEVEIENAKPESGDISKNLAVVNLDWDHVKSEDLMITFSSFVPKGGKIERVAIYPSEFGKERMQREEVEGPPKELFQKKNKNKTSKKKKTDDSDSDMDIGIKDLYEEGDADKDVDSRALRQYQLDRLRYYYAIVYCSDTTTSKAIYDNCDGTEYESTANMFDLRYVPDGMTFDDDVRDECSILPKNYRPHQFSTDALQHSSVKLTWDETPADRVEVAKRAFTQKEIDDMDFKAYLASDSDESDGQVDEEAKNKLKSLVGDFGFNSKKETPNDEDEEVDMEITFTPALEGGNEKSSEDKEETTIEKIRRKEKERRKARKQKVKELKQQSEKDKKSKLKSVNKKHTNDEEEIEKNAKSKAELELLMDDDDDTETQGTINNKAHFNMNEILRSEKEKHKKGRYQKKERIVEDTFTPDLEDPRFKEVFEDHDFAIDPTQPEFKGTQAMSKILKERSKRVKNKKRKLGGSENNMTNNADDNEDIGNLVNKLKKKSKSSKKVKV
B6: Efg1 (protein, UniProt Q3E705 1-233)
chain: MAKLQRKRSKALGSSLEMSQIMDAGTNKIKRRIRDLERLLKKKKDILPSTVIIEKERNLQALRLELQNNELKNKIKANAKKYHMVRFFEKKKALRKYNRLLKKIKESGADDKDLQQKLRATKIELCYVINFPKTEKYIALYPNDTPSTDPKGVELTNLRREQFLKLVAERMDANTLNVSFEEILKGKKLDEDSIGLTLSPDKDHEDGSQVSPTQDRKELDQVVGEDEKDDFFE
B7: Dbp8 (protein, UniProt P38719 1-431)
chain: MADFKSLGLSKWLTESLRAMKITQPTAIQKACIPKILEGRDCIGGAKTGSGKTIAFAGPMLTKWSEDPSGMFGVVLTPTRELAMQIAEQFTALGSSMNIRVSVIVGGESIVQQALDLQRKPHFIIATPGRLAHHIMSSGDDTVGGLMRAKYLVLDEADILLTSTFADHLATCISALPPKDKRQTLLFTATITDQVKSLQNAPVQKGKPPLFAYQVESVDNVAIPSTLKIEYILVPEHVKEAYLYQLLTCEEYENKTAIIFVNRTMTAEILRRTLKQLEVRVASLHSQMPQQERTNSLHRFRANAARILIATDVASRGLDIPTVELVVNYDIPSDPDVFIHRSGRTARAGRIGDAISFVTQRDVSRIQAIEDRINKKMTETNKVHDTAVIRKALTKVTKAKRESLMAMQKENFGERKRQQKKKQNDGKSLRS
B8: Cms1 (protein, UniProt Q07897 1-291)
chain: MSNPDDLDDGLAYDFDAEHEVIFDAKDGSPPTKKVQKRSIEQDDDDVDDIDGKKEERNSEDDSNRPISKRQKKLQKKSKLIEKKKEESQYIVSQRKALPASSPEKIIEYLTTLIREKNPDLSVLELEELYFKRNDFLSTEKFDAERRLSNFPAFIQKFSVAPKKIVFSMSNIRVADVYRSLNGGKNCVKLFSKSKLKDDIATVERLLTDSSKKSNKNKDSLYFIATPTRMQKIIEATDLLFQGKEKLDIILDASYLDPKDNTILSFENAAVLCQVLKTFLNKKSSVKILLY
B9: Esf2 (protein, UniProt P53743 1-316)
chain: MSEKVNSDFEDFSSDEETDQHNVLIQTKKKISSKDDIFSKKVEDIESENESDIEEEQKQEEKEDVEQPDKENGEKLDREVEEQASSTTSLDLKTEKLRQLVKSKAAKKSKHKTGVVYFSSIPPYMKPAKMRQILTRFGEVDRLFLKKEDDQKYKQRVKGGGNKKNKYEEGWAEFIRKRDAKLCAETLNGNIIGGKKGTFYHDDILNVKYLPGFKWADLTEQIARENDIRQAKLEMEISQANKLNAEFIRNVEQSKMIQNIKNSRKRAGKEGESADSHPHREFKQRRVETSRANAPSDIKQQSSGSKDLGNVLTNLL
B10: Nop6 (protein, UniProt Q07623 1-225)
chain: MGSEEDKKLTKKQLKAQQFRKSKEEKDQEKDVKKEQAPEGKRPNSAAGNDGEEPVKKKRKTRRGRGGKGKNGKKGNRFIVFVGSLPRDITAVELQNHFKNSSPDQIRLRADKGIAFLEFDADKDRTGIQRRMDIALLQHGTLLKEKKINVELTVGGGGNSQERLEKLKNKNIKLDEERKERLTKMINDGNQKKIAKTTATAAQTSGTDNKPVPAGIHPDRAKLLK

These are yes or no findings as the source states them, for the method shown. In cells and extracts the contact can be indirect. Here binding means that the protein was enriched with, or labelled near, the bait; the list need not be complete. For part of these data: A no says only that the protein was not detected with the bait.

The target in one test is Utp10 with a C-terminal streptavidin-binding-peptide tag (S. cerevisiae) (UniProt P42945). As to the kind of experiment: condition: only with the pre-rRNA mimic lacking the central domain; affinity purification with mass spectrometry; truncated pre-rRNA mimic lacking the central domain (5' ETS-18S Δ central) in strain Y186; tandem purification by MS2-3C-GFP then Utp10-SBP on streptavidin resin; label-free quantification against 5' ETS-18S 3' minor.
Regarding B1, the binding entry is reported as “no binding”.

For a further test the target is unchanged. The experiment in a line: affinity purification with mass spectrometry; particles on MS2-tagged 5' ETS, 5' ETS-18S 5'-domain and 5' ETS-18S central-domain mimics in strain Y186; tandem purification by MS2-3C-GFP (anti-GFP nanobody beads, 3C elution) then Utp10-SBP on streptavidin resin, biotin elution; 50 mM Tris-HCl pH 7.5, 150 mM NaCl, 5 mM MgCl2, 4°C.
In the case of B2, the binding entry is listed as “binds”. Regarding B3, the binding result was “binds”. As to B4, the binding result is reported as “binds”.

The target is the same in another test. The experiment in a line: affinity purification with mass spectrometry; truncated pre-rRNA mimic lacking the central domain (5' ETS-18S Δ central) in strain Y186; tandem purification by MS2-3C-GFP then Utp10-SBP on streptavidin resin; label-free quantification against 5' ETS-18S 3' minor.
For Dbp4 (from UniProt P20448 1-770), the binding result is given as “binds”.

For B5, the binding result is reported as “binds”. The same measure, in the same setting: the result for B6 reads “binds”.

Regarding B7, the binding result is on record as “binds”.

As for B8, the binding result was “binds”. Regarding B9, the binding result is listed as “binds”. The same measure, in the same setting: the result for B10 reads “binds”.

Another test shares this target. The experiment in a line: affinity purification with mass spectrometry; truncated pre-rRNA mimic with the 5' ETS and all 18S subdomains (5' ETS-18S 3' minor) in strain Y186; tandem purification by MS2-3C-GFP then Utp10-SBP on streptavidin resin; label-free quantification against the mimic lacking the central domain.
Turning to B1, the binding result is listed as “binds”.
